Data as given in patent US20040018977A1.
No constants are given. Whether binding was seen depends on the method and setting. For part of these data: In cells and extracts the contact can be indirect. Some binding calls cover weakened binding; strength is not graded here. Where a sequence is shown, tags or fusion partners need not be part of it.

Sequences of proteins named here, by UniProt entry; tags and fusion partners are left off. Residues count along the entry.
UniProt Q9UIW2, residues 27-1896: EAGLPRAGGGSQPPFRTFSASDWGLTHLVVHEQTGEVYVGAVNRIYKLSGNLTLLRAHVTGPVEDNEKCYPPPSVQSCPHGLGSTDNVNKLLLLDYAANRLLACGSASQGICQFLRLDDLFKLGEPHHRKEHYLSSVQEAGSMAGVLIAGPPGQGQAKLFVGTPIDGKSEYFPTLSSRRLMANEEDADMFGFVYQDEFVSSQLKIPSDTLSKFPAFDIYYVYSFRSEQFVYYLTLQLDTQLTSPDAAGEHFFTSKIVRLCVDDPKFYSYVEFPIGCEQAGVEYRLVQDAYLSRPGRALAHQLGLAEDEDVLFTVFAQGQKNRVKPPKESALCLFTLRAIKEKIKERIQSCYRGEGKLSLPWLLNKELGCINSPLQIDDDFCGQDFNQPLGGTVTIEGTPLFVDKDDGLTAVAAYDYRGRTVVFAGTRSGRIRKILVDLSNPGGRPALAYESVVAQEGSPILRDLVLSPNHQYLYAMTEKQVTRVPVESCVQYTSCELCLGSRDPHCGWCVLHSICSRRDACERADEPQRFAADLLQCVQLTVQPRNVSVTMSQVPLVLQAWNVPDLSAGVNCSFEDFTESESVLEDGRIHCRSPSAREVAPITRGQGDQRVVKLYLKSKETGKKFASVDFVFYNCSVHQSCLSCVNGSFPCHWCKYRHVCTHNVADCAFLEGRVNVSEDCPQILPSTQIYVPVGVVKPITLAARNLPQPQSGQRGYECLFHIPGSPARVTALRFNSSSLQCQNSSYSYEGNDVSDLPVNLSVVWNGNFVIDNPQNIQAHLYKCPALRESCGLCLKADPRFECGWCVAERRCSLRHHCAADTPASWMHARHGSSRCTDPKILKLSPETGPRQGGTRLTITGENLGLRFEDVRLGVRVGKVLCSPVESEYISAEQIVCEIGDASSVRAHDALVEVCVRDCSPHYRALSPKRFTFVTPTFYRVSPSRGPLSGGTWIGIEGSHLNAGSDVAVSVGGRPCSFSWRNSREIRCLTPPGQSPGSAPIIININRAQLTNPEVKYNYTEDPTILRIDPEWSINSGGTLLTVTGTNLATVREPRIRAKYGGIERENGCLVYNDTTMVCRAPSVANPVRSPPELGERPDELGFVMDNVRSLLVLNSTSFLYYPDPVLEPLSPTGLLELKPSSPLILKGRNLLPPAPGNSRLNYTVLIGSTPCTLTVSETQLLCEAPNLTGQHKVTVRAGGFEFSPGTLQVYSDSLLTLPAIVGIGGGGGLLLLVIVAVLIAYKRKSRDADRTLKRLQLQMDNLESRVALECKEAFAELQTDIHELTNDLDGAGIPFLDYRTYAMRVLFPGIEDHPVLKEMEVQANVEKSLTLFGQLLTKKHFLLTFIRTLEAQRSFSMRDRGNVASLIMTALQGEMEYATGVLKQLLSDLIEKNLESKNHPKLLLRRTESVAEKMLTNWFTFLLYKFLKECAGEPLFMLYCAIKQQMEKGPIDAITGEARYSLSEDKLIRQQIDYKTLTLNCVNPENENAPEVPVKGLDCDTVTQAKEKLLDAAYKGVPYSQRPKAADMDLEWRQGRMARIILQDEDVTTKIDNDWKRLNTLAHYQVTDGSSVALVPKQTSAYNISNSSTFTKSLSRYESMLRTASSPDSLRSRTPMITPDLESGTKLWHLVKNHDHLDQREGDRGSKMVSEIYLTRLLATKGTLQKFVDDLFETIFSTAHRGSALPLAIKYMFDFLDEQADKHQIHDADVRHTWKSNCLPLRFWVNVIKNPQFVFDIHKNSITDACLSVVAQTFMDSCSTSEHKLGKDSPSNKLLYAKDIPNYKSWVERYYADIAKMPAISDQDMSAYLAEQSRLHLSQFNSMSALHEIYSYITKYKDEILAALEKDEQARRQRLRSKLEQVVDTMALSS

T1: ARGBP2, Arg/Abl binding protein, aa 319-1100, Activation Domain (AD) fusion (human) (UniProt O94875)
T1 sequence (looked up): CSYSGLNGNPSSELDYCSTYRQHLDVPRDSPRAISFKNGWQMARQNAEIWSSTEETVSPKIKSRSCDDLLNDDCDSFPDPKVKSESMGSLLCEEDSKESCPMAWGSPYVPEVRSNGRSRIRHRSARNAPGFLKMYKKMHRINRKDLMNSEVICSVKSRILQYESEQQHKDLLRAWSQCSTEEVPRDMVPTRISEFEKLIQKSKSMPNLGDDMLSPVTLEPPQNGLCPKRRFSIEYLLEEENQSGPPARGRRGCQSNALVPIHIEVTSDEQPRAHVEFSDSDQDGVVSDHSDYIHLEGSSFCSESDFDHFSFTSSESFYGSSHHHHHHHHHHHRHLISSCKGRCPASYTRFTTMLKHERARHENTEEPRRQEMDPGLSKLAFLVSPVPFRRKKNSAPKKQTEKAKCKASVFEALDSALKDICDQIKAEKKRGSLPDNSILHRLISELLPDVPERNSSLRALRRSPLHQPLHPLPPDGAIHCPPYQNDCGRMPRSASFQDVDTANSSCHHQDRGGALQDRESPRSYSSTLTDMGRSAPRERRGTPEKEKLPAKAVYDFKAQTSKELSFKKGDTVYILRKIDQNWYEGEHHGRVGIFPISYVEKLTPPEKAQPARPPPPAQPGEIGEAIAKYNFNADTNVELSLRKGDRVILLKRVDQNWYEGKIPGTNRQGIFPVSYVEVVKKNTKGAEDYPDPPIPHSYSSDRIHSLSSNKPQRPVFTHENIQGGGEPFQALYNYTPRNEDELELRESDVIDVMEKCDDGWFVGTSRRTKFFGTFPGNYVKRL


Tests used:
[1] = molecular target: T1, ARGBP2, Arg/Abl binding protein, aa 319-1100, Activation Domain (AD) fusion (human); assay: yeast two-hybrid screen (PathCalling)
[2] = molecular target: Plexin A1 with c-myc epitope (UniProt Q9UIW2); assay: co-immunoprecipitation, Western blot
[3] = molecular target: Plexin A1 with c-myc epitope (UniProt Q9UIW2); assay: co-immunoprecipitation from co-transfected cells (IP c-myc / blot V5-his, and IP V5-his / blot c-myc)

binding [1] | binding [2] | binding [3] | Binder
binds | – | – | CG51896-10, intracellular domain, aa 805-1047, Binding Domain (BD) fusion (protein, not shown: large carriers) TKDMPPMGSPVIPTDLPLRASPSHIPSVVVLPITQQGYQHEYVDQPKMSEVAQMALEDQAATLEYKTIKEHLSSKSPNHGVNLVENLDSLPPKVPQREASLGPPGASLSQTGLSKRLEMHHSSSYGVDYKRSYPTNSLTRSHQATTLKRNNTNSSNSSHLSRNQSFGRGDNPPPAPQRVDSIQVHSSQPSGQAVTVSRQPSLNAYNSLTRSGLKRTPSLKPDVPPKPSFAPLSTSMKPNDACT
– | binds | binds | CG51896-02 (Semaphorin 6A extracellular domain) with V5-His epitope (ligand, not shown: small tags and cut ends) GFPEDSEPISISHGNYTKQYPVFVGHKPGRNTTQRHRLDIQMIMIMNGTLYIAARDHIYTVDIDTSHTEEIYCSKKLTWKSRQADVDTCRMKGKHKDECHNFIKVLLKKNDDALFVCGTNAFNPSCRNYKMDTLEPFGDEFSGMARCPYDAKHANVALFADGKLYSATVTDFLAIDAVIYRSLGESPTLRTVKHDSKWLKEPYFVQAVDYGDYIYFFFREIAVEYNTMGKVVFPRVAQVCKNDMGGSQRVLEKQWTSFLKARLNCSVPGDSHFYFNILQAVTDVIRINGRDVVLATFSTPYNSIPGSAVCAYDMLDIASVFTGRFKEQKSPDSTWTPVPDERVPKPRPGCCAGSSSLERYATSNEFPDDTLNFIKTHPLMDEAVPSIFNRPWFLRTMVRYRLTKIAVDTAAGPYQNHTVVFLGSEKGIILKFLARIGNSGFLNDSLFLEEMSVYNSEKCSYDGVEDKRIMGMQLDRASSSLYVAFSTCVIKVPLGRCERHGKCKKTCIASRDPYCGWIKEGGACSHLSPNSRLTFEQDIERGNTDGLGDCHNSFVALNGHSSSLLPSTTTSDSTAQEGYESRGGMLDWKHLLDSPDSTDPLGAVSSHNHQDKKGVIRESYLKGHDQ
